Experimental data published in article PMC12040169 (PLOS Biology, 2025).
The other results are listed elsewhere or left out.

What follows are compounds tested on T1, CTL2-GFP (C. trachomatis L2/434/Bu, GFP-expressing). Details: bulk GFP, single well; 28.5 h, 10 µM; inhibitor.
T1 construct: L2/434/Bu, GFP-expressing
Parameters: species or system HeLa; Intracellular C. trachomatis growth in HeLa cells, bulk GFP fluorescence relative to DMSO

| Structure (SMILES) | % of control remaining [%] |
| --- | --- |
| O=C(CN(c1ccc(Cl)cc1)S(=O)(=O)c1ccccc1)Nc1ccc2ccccc2c1 [CBK263776] | 88.1765 |
| O=C(C1CCCCC1)N1CCC(c2nnc3n2CCCCC3)CC1 [CBK284613] | 147.477 |
| Cc1ncsc1CCOc1cc(N2CCCC2)ncn1 [CBK115895] | 122.189 |
| N#Cc1c(SCC(=O)N2CCc3ccccc3C2)nsc1SCC(=O)N1CCc2ccccc2C1 [CBK267453] | 121.001 |
| O=C(O)COc1ccccc1/C=N\N1CCN(c2ccccn2)CC1 [CBK262916] | 99.7866 |
| O=C(c1cccc(F)c1)N1CCC(O)(c2cccnc2F)CC1 [CBK284357] | 110.696 |
| COc1ccc2c(c1)CCN=C2C[C@H]1CN(C(=O)C(C)(C)C)CC[C@H]1CC(=O)O [CBK289155] | 114.31 |
| CCn1c2ccccc2c2cc(CN3CCN(c4ccccc4OC)CC3)ccc21 [CBK261579] | 116.012 |
| C(=N\N1CCOCC1)/c1cccs1 [CBK027942] | 151.636 |
| CCN1CCN(C(=O)C2CC=CCC2C(=O)O)CC1 (stereo not drawn) [CBK270295] | 128.428 |
| Cc1c(Cl)cccc1NC(=O)CSCc1cc(O)[nH]n1 [CBK268199] | 117.053 |
| CCC(=O)Nc1nc(-c2ccc(C(=O)OC)cc2)nc2c1c(=O)oc1ccccc12 [CBK268449] | 133.994 |
| CC1CN(S(=O)(=O)c2ccc(NC(=O)c3nc(SCc4ccccc4)ncc3Cl)cc2)CC(C)O1 (stereo not drawn) [CBK268930] | 71.1 |
| COc1ccc([C@H]2CN(C(=O)c3ccccc3)[C@@H]3CCN(Cc4cccc(F)c4)C[C@H]23)cc1 [CBK285584] | 85.1677 |
| COc1ccc(N2CCN(c3c(C)c(C)nc4cc(-c5nccn5C)nn34)CC2)cc1 [CBK286178] | 131.758 |
| O=C(NCc1cccc(C(F)(F)F)c1)c1cnc(-c2ccccc2)c(-c2ccco2)c1 [CBK036667] | 153.008 |
| Cn1ccnc1CN1CCCN(C(=O)c2cccc(C#N)c2)CC1 [CBK303998] | 101.469 |
| CCCNC(=O)Cn1nc(C)n2c(cc3sccc32)c1=O [CBK284020] | 142.756 |
| O=[N+]([O-])c1cc(S(=O)(=O)Nc2nnc(C(F)(F)F)s2)ccc1Cl [CBK062021] | 94.8886 |
| O=c1c(-c2ccccc2)c(C(F)(F)F)oc2c(CN3CCN(Cc4ccccc4)CC3)c(O)ccc12 [CBK265808] | 120.896 |
| Cc1[nH]c2cc(C(=O)O)ccc2c1CC(=O)O [CBK269955] | 102.454 |
| COC(=O)c1cccc(C(=O)Nc2ncc(-c3ccccc3)s2)c1 [CBK298294] | 165.92 |
| CCN1CCN(c2c(Cl)cccc2NC(=O)CSc2ccc(Cl)cc2)CC1 [CBK267606] | 133.006 |
| O=C(NS(=O)(=O)c1cccc(-c2nnco2)c1)C1C2C3CCC(C3)C12 (stereo not drawn) [CBK306488] | 142.415 |
| Cc1cc2ccnc(Cl)c2n1CC1(O)CC2CCC(C1)N2 (stereo not drawn) [CBK284980] | 137.966 |
| NC(=O)COc1ccc(CNc2ccc(Oc3ccccc3)cc2)cc1Cl [CBK269584] | 140.281 |

Look-ups from the list.
COC(=O)c1cccc(C(=O)Nc2ncc(-c3ccccc3)s2)c1 [CBK298294] – % of control remaining [%]: 165.92
O=[N+]([O-])c1cc(S(=O)(=O)Nc2nnc(C(F)(F)F)s2)ccc1Cl [CBK062021] – % of control remaining [%]: 94.8886
O=C(NS(=O)(=O)c1cccc(-c2nnco2)c1)C1C2C3CCC(C3)C12 (stereo not drawn) [CBK306488] – % of control remaining [%]: 142.415
C(=N\N1CCOCC1)/c1cccs1 [CBK027942] – % of control remaining [%]: 151.636

The list continues:

| Structure (SMILES) | % of control remaining [%] |
| --- | --- |
| CNCC(=O)N1CCC2(CCCC[C@H]3CN(C(C)=O)CC[C@H]3NC(=O)CNC2=O)CC1 [CBK292181] | 129.52 |
| Cc1nc(S(=O)(=O)CCn2cccn2)n(C2CCCC2)c1C [CBK305138] | 114.699 |
| Cc1ccc2c(c1)N(CCO)/C(=C/c1sc3ccccc3[n+]1CCCS(=O)(=O)[O-])S2 [CBK293965] | 104.129 |
| COc1ccc(-c2nnc3ccc(SCC(=O)N4CCCC4)nn23)cc1OC [CBK287527] | 133.884 |
| Cc1ccc(S(=O)(=O)NC[C@H]2CC[C@H](C(=O)O)CC2)cc1 [CBK286706] | 101.919 |
| NC(=O)c1c(NC(=O)/C=C/c2c(F)cccc2Cl)sc2c1CCCCCC2 [CBK262631] | 100 |
| CCN(CC)C(=O)C1CCCN(C(=O)NCCOC)C1 (stereo not drawn) [CBK156129] | 94.9404 |
| COc1ccc(CN2CCNC(=O)C2CC(=O)O)cc1OC (stereo not drawn) [CBK269991] | 124.088 |
| CC(=O)NCCn1cc2c(n1)[C@H]1CN(C(=O)C(C)(C)C)C[C@H]1CC2 [CBK282168] | 160.813 |
| O=c1c2ccccc2nc2n1CCN(Cc1ccc(F)cc1)CC2 [CBK284814] | 120.813 |
| CC(=O)N1C[C@H]2CCCN(S(=O)(=O)c3ccc(Cl)s3)[C@H]2C1 [CBK285293] | 112.359 |
| Cc1cccc(C(=O)Oc2ccc(-n3ccnc3)cc2)c1 [CBK090137] | 100.277 |
| O=c1cc2ncc(-c3ccncc3)cn2[nH]1 [CBK011300] | 116.118 |
| Cc1cccc(NC(=O)c2cnc3scc(C)n3c2=O)c1 [CBK287453] | 111.9 |
| Cc1ccccc1NC(=O)N1CCC2(CC1)NCCc1c2[nH]c2ccc(O)cc12 [CBK046904] | 154.22 |
| COc1ccccc1CN(CCCn1ccnc1)Cc1cccn1C [CBK283160] | 114.19 |
| Cc1nc2ccc(NC(=O)CC(c3ccccc3)c3ccccc3)cc2s1 [CBK293988] | 169.13 |
| O=C(Cn1nnc(-c2ccccc2)n1)Nc1ccccc1C(=O)O [CBK264358] | 125.806 |
| O=S(=O)(c1ccc(-c2csc(-c3cccnc3)n2)cc1)N1CCCCCC1 [CBK265502] | 83.7738 |
| CC(C)(C)OC(=O)N1CCCC(C(=O)NC2CCCc3ccccc32)C1 (stereo not drawn) [CBK305617] | 96.4408 |
| O=C(Cc1ccc(F)cc1Cl)N1CCn2c(nnc2C2CC2)C1 [CBK283773] | 116.998 |
| O=C(O)c1cn(C2CC2)c2cc(N3CCN(C(=O)Cc4ccccc4Cl)CC3)c(F)cc2c1=O [CBK297136] | 38.5475 |
| O=C(CCCCCN1C(=O)c2ccccc2C1=O)NO [CBK288514] | 121.327 |
| COc1cc(CNc2ccc(N3CCCCC3)cc2)cc(Cl)c1OCc1cccs1 [CBK074586] | 75.8316 |
| O=C(O)CCC(=O)N1CCCC2(CCN(C(=O)Cc3c[nH]c4ccccc34)C2)C1 (stereo not drawn) [CBK131572] | 115.07 |
| Cc1ccc(-c2nccnc2OCCOc2ccccc2)c(C)c1 [CBK106991] | 103.405 |

| Structure (SMILES) | % of control remaining [%] |
| --- | --- |
| Cc1ccc(C)c(NC(=O)CN(Cc2ccc(Cl)c(Cl)c2)S(=O)(=O)c2ccccc2)c1 [CBK264191] | 98.1417 |
| N#Cc1ccc(N2CCCC(N3CCNC3=O)C2)c(C(F)(F)F)c1 (stereo not drawn) [CBK305162] | 108.501 |
| Cc1ccc2[nH]c(SCc3nc4ccccc4c(=O)[nH]3)nc2c1 [CBK269908] | 150.086 |
| O=C(NC1(c2ccccc2)CCCC1)c1ccc(=O)n(CC(=O)N2CCCCC2)c1 [CBK285631] | 124.661 |
| C=CCn1c(-c2sc(NC(=O)CCc3ccco3)nc2C)n[nH]c1=S [CBK295312] | 166.676 |
| Cn1c(=O)n(CC(=O)NCc2cccs2)c2cccnc21 [CBK283907] | 104.123 |
| c1coc(-c2cn3ccnc3c(NCCc3ccncc3)n2)c1 [CBK037333] | 181.091 |
| CCCc1ccc(S(=O)(=O)Nc2cccc(C(=O)OCC)c2)cc1 [CBK034332] | 112.339 |
| Cc1ccc(S(=O)(=O)N(CC(O)CN2CCCCC2)c2ccccc2)cc1 (stereo not drawn) [CBK263570] | 119.783 |
| COc1cc(CNC(=O)c2ccc(O)nc2)ccc1OCc1ccncc1 [CBK298297] | 102.389 |
| COCCCNC(=O)c1cnn2c(C)c(Cc3ccccc3)c(C)nc12 [CBK162216] | 109.209 |
| O=C(NCc1ccc(F)cc1)c1cc(Br)cnc1NCc1cccnc1 [CBK076405] | 89.7497 |
| COc1ccc2[nH]cc(C(C(=O)O)N3CCCCC3)c2c1 (stereo not drawn) [CBK286676] | 145.562 |
| CC(C)c1nc(CCN(C)C(=O)NCc2cnc3cnccn23)no1 [CBK307666] | 102.542 |
| CC(C)Nc1nc2cc(Cl)c(Cl)cc2nc1OCCCN(C)C [CBK115282] | 106.392 |
| CCCCOc1ccc(C(=O)OC(Cc2cccc3ccccc23)CN(CC)CC)cc1 (stereo not drawn) [CBK011965C] | 106.572 |
| O=C(NCCN1CCOCC1)c1cc(Br)cnc1N1CCOCC1 [CBK076202] | 119.203 |
| CCN(Cc1ccccc1)C(=O)Nc1ccc2[nH]ccc2c1 [CBK155229] | 103.701 |
| COCCNS(=O)(=O)c1ccc(C)cc1 [CBK002332] | 123.905 |
| COc1cc(CCN2CCC(c3nc(-c4ccccc4)c4ccccn34)CC2)cc(OC)c1OC [CBK035278] | 95.1428 |
| O=C(O)C1CCCN(C(=O)COc2cc3oc(=O)cc(-c4ccccc4)c3cc2Cl)C1 (stereo not drawn) [CBK286753] | 114.447 |
| Fc1ccc2[nH]c3c(c2c1)CCN1C(c2cccnc2)N2CCC31CC2 (stereo not drawn) [CBK284436] | 134.804 |
| CCc1ccc(C(O)CNC2CCN(Cc3cscn3)CC2)cc1 (stereo not drawn) [CBK304733] | 135.146 |
| CC(C)NCC(O)c1c2c(cc3c1CCC3)CCC2 (stereo not drawn) [CBK012972F] | 127.334 |
| O=C(O)/C=C/C(=O)N1N=C(c2ccc(F)cc2)CC12C(=O)Nc1ccccc12 (stereo not drawn) [CBK286747] | 107.726 |
| COc1ccc(N2CCN(c3nc(N4CCOCC4)nc(N4CCOCC4)n3)CC2)cc1 [CBK264166] | 96.6716 |
